Legend:
Assay in all cases: drug sensitivity score (DSS) from 5-dose viability curve (DSS (area-based score, 0 = no response)); higher = more sensitive (stronger viability inhibition); extreme values may be limits of the assay
[1] = tested on: MDCK wild-type - doxycycline; settings: doxycycline: none; 72 h
Method in brief: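 Viability of parental MDCK cells cultured without doxycycline was measured by CellTiter-Glo luminescence and scaled per plate between vehicle and positive controls. The cells had been exposed for 72 h to an oncology library of 528 drugs at five doses (1-10,000 nM). Drug sensitivity scores were calculated from dose-response curve fits in the Breeze pipeline.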

[2] = tested on: MDCK p60AmotL2-inducible + doxycycline (p60AmotL2 expressing); settings: doxycycline: 10 ng/mL; 72 h
Method in brief: (§1)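 Parental MDCK cells and MDCK cells with a doxycycline-inducible transgene were both grown with doxycycline at 10 ng/mL in the medium before plating, then dispensed at 2000 cells/well into 384-well plates pre-spotted with an oncology library of 528 drugs at five doses (1-10,000 nM). After 72 h at 37 °C, CellTiter-Glo luminescence was recorded and scaled on each plate between vehicle and positive controls. This scaled signal served as the viability readout, and drug sensitivity scores were derived from dose-response curve fits in the Breeze pipeline.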

[3] = tested on: MDCK wild-type + doxycycline; settings: doxycycline: 10 ng/mL; 72 h
Method in brief: as §1

Work on `C[C@@H]1C[C@H](N)C[C@H](c2ccncc2NC(=O)c2ccc(F)c(-c3c(F)cccc3F)n2)C1` [PIM-447] yielded a drug sensitivity score [1] of 0, a drug sensitivity score [2] of 3.1 and a drug sensitivity score [3] of 3.4.
